Some of these results come from one statement about several compounds together. At least one compound was matched to its structure with a doubt left.
System: cabbage moth (Plutella xylostella)
Assay: Insecticidal test against cabbage moth (leaf dip)
Assay type: in vivo
Details: second instar larva, after 6 days

| Compound | insecticidal rate (rate of dead insects) (10 ppm (**)) | insecticidal rate (rate of dead insects) (100 ppm (*)) | also measured |
| --- | --- | --- | --- |
| O=C(NCc1ccc(C2=NOC(c3cc(C(F)(F)F)cc(C(F)(F)F)c3)(C(F)(F)F)C2)cc1Cl)n1ccnc1 (centres unmarked) [2-535] | – | – | insecticidal rate (rate of dead insects) (500 ppm): ≥ 80% |
| O=C(NCc1ccc(C2=NOC(c3cc(Cl)cc(C(F)(F)F)c3)(C(F)(F)F)C2)cc1Br)c1cccnc1Cl (centres unmarked) [2-538] | ≥ 80% | – | – |
| O=C(NCc1ccc(C2=NOC(c3cc(Cl)cc(Cl)c3)(C(F)(F)F)C2)cc1)OCCCl (centres unmarked) [3-003] | – | ≥ 80% | – |
| O=C(NCc1ccc(C2=NOC(c3cc(Cl)cc(Cl)c3)(C(F)(F)F)C2)cc1Cl)OCC(F)(F)F (centres unmarked) [3-004] | ≥ 80% | – | – |
| CCSC(=O)NCc1ccc(C2=NOC(c3cc(Cl)cc(Cl)c3)(C(F)(F)F)C2)cc1Cl (centres unmarked) [3-005] | – | ≥ 80% | – |
| CC(C)(C)OC(=O)NCc1ccc(C2=NOC(c3cc(Cl)c(Cl)c(Cl)c3)(C(F)(F)F)C2)cc1[N+](=O)[O-] (centres unmarked) [3-006] | – | ≥ 80% | – |
| O=C(NCc1ccc(C2=NOC(c3cc(Cl)c(Cl)c(Cl)c3)(C(F)(F)F)C2)cc1Cl)OCC(F)(F)F (centres unmarked) [3-007] | ≥ 80% | – | – |
| O=C(NCc1ccc(C2=NOC(c3cc(Cl)cc(Cl)c3)(C(F)(F)F)C2)cc1Br)OCC(F)(F)F (centres unmarked) [3-008] | ≥ 80% | – | – |
| CC(NC(=O)OCC(F)(F)F)c1ccc(C2=NOC(c3cc(Cl)c(Cl)c(Cl)c3)(C(F)(F)F)C2)cc1 (centres unmarked) [3-009] | – | ≥ 80% | – |
| C#CCOC(=O)NCc1ccc(C2=NOC(c3cc(Cl)c(Cl)c(Cl)c3)(C(F)(F)F)C2)cc1Cl (centres unmarked) [3-010] | ≥ 80% | – | – |
| CSC(=O)NCc1ccc(C2=NOC(c3cc(Cl)c(Cl)c(Cl)c3)(C(F)(F)F)C2)cc1Cl (centres unmarked) [3-011] | ≥ 80% | – | – |
| CCSC(=O)NCc1ccc(C2=NOC(c3cc(Cl)c(Cl)c(Cl)c3)(C(F)(F)F)C2)cc1Cl (centres unmarked) [3-012] | – | ≥ 80% | – |
| CSC(=O)NCc1ccc(C2=NOC(c3cc(C(F)(F)F)cc(C(F)(F)F)c3)(C(F)(F)F)C2)cc1Br (centres unmarked) [3-013] | – | ≥ 80% | – |
| C[C@@H](NC(=O)OC(C)(C)C)c1ccc(C2=NOC(c3cc(C(F)(F)F)cc(C(F)(F)F)c3)(C(F)(F)F)C2)cc1 (some centres unmarked) [3-014] | – | ≥ 80% | – |
| C[C@H](NC(=O)OC(C)(C)C)c1ccc(C2=NOC(c3cc(C(F)(F)F)cc(C(F)(F)F)c3)(C(F)(F)F)C2)cc1 (some centres unmarked) [3-015] | – | ≥ 80% | – |
| O=C(NCc1ccc(C2=NOC(c3cc(Cl)cc(Cl)c3)(C(F)(F)F)C2)cc1)NCC(F)(F)F (centres unmarked) [4-001] | – | ≥ 80% | – |
| CCNC(=O)NC(C)c1ccc(C2=NOC(c3cc(Cl)cc(Cl)c3)(C(F)(F)F)C2)cc1 (centres unmarked) [4-002] | ≥ 80% | – | – |
| CC(C)NC(=O)NC(C)c1ccc(C2=NOC(c3cc(Cl)cc(Cl)c3)(C(F)(F)F)C2)cc1 (centres unmarked) [4-003] | – | ≥ 80% | – |
| CCNC(=O)NC(C#N)c1ccc(C2=NOC(c3cc(Cl)cc(Cl)c3)(C(F)(F)F)C2)cc1 (centres unmarked) [4-005] | ≥ 80% | – | – |
| CC(C)NC(=O)NC(C#N)c1ccc(C2=NOC(c3cc(Cl)cc(Cl)c3)(C(F)(F)F)C2)cc1 (centres unmarked) [4-006] | – | ≥ 80% | – |
| CONC(=O)NCc1ccc(C2=NOC(c3cc(Cl)cc(Cl)c3)(C(F)(F)F)C2)cc1Cl (centres unmarked) [4-007] | – | ≥ 80% | – |
| O=C(NCc1ccc(C2=NOC(c3cc(Cl)cc(Cl)c3)(C(F)(F)F)C2)cc1Br)NCC(F)(F)F (centres unmarked) [4-008] | – | ≥ 80% | – |
| O=C(NCc1ccc(C2=NOC(c3cc(Cl)cc(Cl)c3)(C(F)(F)F)C2)cc1I)NCC(F)(F)F (centres unmarked) [4-009] | – | ≥ 80% | – |
| CCNC(=O)NCc1ccc(C2=NOC(c3cc(Cl)cc(Cl)c3)(C(F)(F)F)C2)cc1C (centres unmarked) [4-010] | – | ≥ 80% | – |
| CN(C)C(=O)NCc1ccc(C2=NOC(c3cc(Cl)cc(Cl)c3)(C(F)(F)F)C2)cc1Cl (centres unmarked) [4-011] | – | ≥ 80% | – |
| O=C(NCc1ccc(C2=NOC(c3cc(Cl)cc(Cl)c3)(C(F)(F)F)C2)cc1Cl)NC1CC1 (centres unmarked) [4-012] | ≥ 80% | – | – |

Reference: US7947715B2, “Isoxazoline compound and pesticide” (Nissan Chemical Industries, Ltd., priority 2006, dated 2011)
